From article PMC3749868, “Proteolytic processing of QSOX1A ensures efficient secretion of a potent disulfide catalyst” (Biochemical Journal, 2013) come the findings set out here.

No constants are given. Whether binding was seen depends on the method and setting. Binding seen in cells or lysates may run through a third protein. Some binding calls cover weakened binding; strength is not graded here. Sequences can lack the tags named with a protein.

This experiment deals with T1, QSOX1A–GFP (QSOX1A with a C-terminal GFP tag, uncleaved) (human) (UniProt O00391).
T1 sequence: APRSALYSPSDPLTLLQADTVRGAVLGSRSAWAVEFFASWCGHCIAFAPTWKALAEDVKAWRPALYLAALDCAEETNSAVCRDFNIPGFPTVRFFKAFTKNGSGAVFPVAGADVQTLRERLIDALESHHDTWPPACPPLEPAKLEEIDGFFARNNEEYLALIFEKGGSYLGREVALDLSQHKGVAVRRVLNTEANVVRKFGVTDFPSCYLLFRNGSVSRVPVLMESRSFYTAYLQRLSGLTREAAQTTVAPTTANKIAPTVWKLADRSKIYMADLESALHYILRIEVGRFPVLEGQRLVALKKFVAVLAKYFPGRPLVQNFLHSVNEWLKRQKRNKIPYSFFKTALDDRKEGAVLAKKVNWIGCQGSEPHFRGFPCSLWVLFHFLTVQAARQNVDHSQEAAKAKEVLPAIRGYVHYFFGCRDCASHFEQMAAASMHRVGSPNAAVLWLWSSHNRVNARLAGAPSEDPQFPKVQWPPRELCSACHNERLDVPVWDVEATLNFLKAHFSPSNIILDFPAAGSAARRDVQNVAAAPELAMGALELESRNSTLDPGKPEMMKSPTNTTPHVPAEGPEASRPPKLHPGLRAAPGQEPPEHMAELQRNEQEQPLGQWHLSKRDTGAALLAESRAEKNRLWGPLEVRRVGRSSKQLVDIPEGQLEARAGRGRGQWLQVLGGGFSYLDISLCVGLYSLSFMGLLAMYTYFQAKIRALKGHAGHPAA
Description: co-IP; HT1080 co-transfected for 24 h, free thiols blocked with 20 mM NEM, lysed in RIPA buffer; GFP-Trap_A immunoisolation of QSOX1A–GFP, immunoblot with anti-V5 and anti-GFP.

B1: QSOX1A–V5 (quiescin sulfhydryl oxidase 1, splice variant A, V5-tagged, uncleaved) (enzyme, human, UniProt O00391 30-747, looked up)
chain: APRSALYSPSDPLTLLQADTVRGAVLGSRSAWAVEFFASWCGHCIAFAPTWKALAEDVKAWRPALYLAALDCAEETNSAVCRDFNIPGFPTVRFFKAFTKNGSGAVFPVAGADVQTLRERLIDALESHHDTWPPACPPLEPAKLEEIDGFFARNNEEYLALIFEKGGSYLGREVALDLSQHKGVAVRRVLNTEANVVRKFGVTDFPSCYLLFRNGSVSRVPVLMESRSFYTAYLQRLSGLTREAAQTTVAPTTANKIAPTVWKLADRSKIYMADLESALHYILRIEVGRFPVLEGQRLVALKKFVAVLAKYFPGRPLVQNFLHSVNEWLKRQKRNKIPYSFFKTALDDRKEGAVLAKKVNWIGCQGSEPHFRGFPCSLWVLFHFLTVQAARQNVDHSQEAAKAKEVLPAIRGYVHYFFGCRDCASHFEQMAAASMHRVGSPNAAVLWLWSSHNRVNARLAGAPSEDPQFPKVQWPPRELCSACHNERLDVPVWDVEATLNFLKAHFSPSNIILDFPAAGSAARRDVQNVAAAPELAMGALELESRNSTLDPGKPEMMKSPTNTTPHVPAEGPEASRPPKLHPGLRAAPGQEPPEHMAELQRNEQEQPLGQWHLSKRDTGAALLAESRAEKNRLWGPLEVRRVGRSSKQLVDIPEGQLEARAGRGRGQWLQVLGGGFSYLDISLCVGLYSLSFMGLLAMYTYFQAKIRALKGHAGHPAA
notes: human QSOX1A, the long splice variant of QSOX1 with 143 additional C-terminal amino acids including the single-pass TM domain; uncleaved (full-length) form; Membrane-integrated, V5 on the cytosolic side; also called V5-tagged QSOX1A; uncleaved QSOX1A–V5; source: HT1080, stably overexpressing (cross-linking in cells, SEC of lysate); HT1080, transiently co-transfected, in lysate (co-assembly); not …
Take B1: the binding result is listed as “binds”.

B2: QSOX1B–V5 (quiescin sulfhydryl oxidase 1, splice variant B, V5-tagged) (enzyme, UniProt O00391-2 30-604)
chain: APRSALYSPSDPLTLLQADTVRGAVLGSRSAWAVEFFASWCGHCIAFAPTWKALAEDVKAWRPALYLAALDCAEETNSAVCRDFNIPGFPTVRFFKAFTKNGSGAVFPVAGADVQTLRERLIDALESHHDTWPPACPPLEPAKLEEIDGFFARNNEEYLALIFEKGGSYLGREVALDLSQHKGVAVRRVLNTEANVVRKFGVTDFPSCYLLFRNGSVSRVPVLMESRSFYTAYLQRLSGLTREAAQTTVAPTTANKIAPTVWKLADRSKIYMADLESALHYILRIEVGRFPVLEGQRLVALKKFVAVLAKYFPGRPLVQNFLHSVNEWLKRQKRNKIPYSFFKTALDDRKEGAVLAKKVNWIGCQGSEPHFRGFPCSLWVLFHFLTVQAARQNVDHSQEAAKAKEVLPAIRGYVHYFFGCRDCASHFEQMAAASMHRVGSPNAAVLWLWSSHNRVNARLAGAPSEDPQFPKVQWPPRELCSACHNERLDVPVWDVEATLNFLKAHFSPSNIILDFPAAGSAARRDVQNVAAAPELAMGALELESRNSTLDPGKPEMMKSPTNTTPHVPAEGPELI
Consider B2, for which the binding entry is given as “binds”.
